Literature values as cited in patent US4447440A, “Sulphenamides-containing lipoxygenase inhibiting agents and their use in pharmaceutical compositions” (Bayer Aktiengesellschaft, priority 1981, dated 1984).
For at least one compound, name, drawing or mass did not settle the structure.

Test system: lipoxygenase / cyclooxygenase
Conditions: prior art; cited from earlier work

NC1=NN(c2cccc(C(F)(F)F)c2)CC1 [3-amino-1-(3-trifluoromethylphenyl)pyrazoline]
activity of known inhibitors of lipoxygenase, in words: either simultaneously active as inhibitors of cyclooxygenase, or only active at very high concentrations
